Measured values: publication PMC8692909
Results are given in words; binding and its absence hold for the method and conditions named. Binding seen in cells or lysates may run through a third protein. Some binding calls cover weakened binding; strength is not graded here.

Protein sequences, listed by entry. Tags and fused reporters are not part of them.
UniProt Q8BWG8: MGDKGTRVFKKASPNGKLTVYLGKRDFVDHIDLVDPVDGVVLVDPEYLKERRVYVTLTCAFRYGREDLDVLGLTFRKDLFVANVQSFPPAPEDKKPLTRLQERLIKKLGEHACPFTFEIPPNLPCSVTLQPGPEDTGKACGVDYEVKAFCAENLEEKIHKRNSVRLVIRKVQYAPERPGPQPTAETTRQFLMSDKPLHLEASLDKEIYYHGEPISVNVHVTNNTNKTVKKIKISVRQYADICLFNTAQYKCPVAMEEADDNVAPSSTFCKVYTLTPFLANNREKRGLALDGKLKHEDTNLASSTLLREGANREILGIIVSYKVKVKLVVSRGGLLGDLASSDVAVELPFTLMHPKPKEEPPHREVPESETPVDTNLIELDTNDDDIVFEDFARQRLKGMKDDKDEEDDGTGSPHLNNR
UniProt P70658: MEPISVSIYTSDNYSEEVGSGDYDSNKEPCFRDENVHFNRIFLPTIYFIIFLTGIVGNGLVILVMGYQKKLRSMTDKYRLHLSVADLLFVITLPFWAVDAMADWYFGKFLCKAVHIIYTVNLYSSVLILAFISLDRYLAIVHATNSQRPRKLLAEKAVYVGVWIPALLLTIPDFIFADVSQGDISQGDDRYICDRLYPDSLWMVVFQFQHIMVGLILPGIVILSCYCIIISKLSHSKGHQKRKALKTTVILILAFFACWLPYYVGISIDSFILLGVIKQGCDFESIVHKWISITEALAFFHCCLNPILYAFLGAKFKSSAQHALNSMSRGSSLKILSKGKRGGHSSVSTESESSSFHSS

Target: β-arrestin-1 (mouse (endogenous in MPC5)) (UniProt Q8BWG8)
Test: co-IP; MPC5 mouse podocytes treated with SDF-1α for 5 min; cell lysates immunoprecipitated overnight at 4 °C with anti-CXCR4 or anti-β-arrestin-1 antibody and protein A/G plus agarose; washed with lysis buffer; immunoblotted for CXCR4, Src and β-arrestin-1

binding: binds
Substance: C-X-C chemokine receptor type 4 (from UniProt P70658 1-359)
